Measured values reported in patent US20260184795A1.
Results are given in words; binding and its absence hold for the method and conditions named. Some binding calls cover weakened binding; strength is not graded here. Where a sequence is shown, tags or fusion partners need not be part of it.

Target: BT549
Test: flow cytometry, percent of 9H-1-binding BT549 cells (DDR1 low/DDR2 high)

binding: binds
B1: 9H-1 (humanized DDR1-9, WT IgG1 Fc) (antibody, V domains shown)
VH: QVQLVESGGRVVQPGRSLRLSCTASGFSLNRYYMLWVRQAPGKGLEWIGTISYGDTTYYASWAKGRFTISRDNSKNTLYLQMNSLRAEDTAVYYCARADTGDNGYLGLQLWGQGTLVTVSS
VL: DIQMTQSPSSVSASVGDRVTITCQASQSIGSVLAWYQQKPGKAPKLLISGVFDLASGVPSRFSGSGSGTDFTLTISSLQPEDFATYYCQYIPYGSSPFGGGTKVEIKR
